{"source": "patent US20160046620A1", "about": "“METHODS OF CONTROLLING NEONICOTINOID RESISTANT PESTS” (SYNGENTA PARTICIPATIONS AG, priority 2013, published 2016)", "key": {"[1]": {"system": "Q-biotype (Neonicotinoid resistant) strain of Bemisia tabaci", "experiment": "Control of neonicotinoid resistant tobacco whitefly, preventive egg lay bioassay on cotton / dose-response bioassay", "assay_type": "in vivo", "settings": "for control of the Q-biotype (Neonicotinoid resistant) strain of Bemisia tabaci: 200 ppm; for resistance factor: Q-biotype resistant vs standard susceptible strain of Bemisia tabaci"}, "[2]": {"system": "FRC-P (Neonicotinoid resistant) strain of Myzus persicae", "experiment": "Control of neonicotinoid resistant green peach aphid, spray bioassay on pea seedlings / dose-response bioassay", "assay_type": "in vivo", "settings": "for resistance factor (RF80): FRC-P resistant vs standard susceptible strain of Myzus persicae, concentration for 80% mortality"}}, "note": "Some entries share one result that the patent states for a list of compounds.", "data": [{"molecule": "CS(=O)(=O)CCN1[C@@H]2C=C[C@H]1C[C@](C#N)(c1cncc(C#N)c1)C2", "note": "[Compound 2.249, (1R,3S,5S)-3-(5-cyano-3-pyridyl)-8-(2-methylsulfonylethyl)-8-azabicyclo[3.2.1]oct-6-ene-3-carbonitrile]", "values": [{"measurement": "control of the Q-biotype (Neonicotinoid resistant) strain of Bemisia tabaci", "setting": "[1]", "result": "at least 80%"}, {"measurement": "resistance factor", "setting": "[1]", "result": "≤ 20"}]}, {"molecule": "N#Cc1cncc([C@]2(C#N)C[C@H]3C=C[C@@H](C2)N3C2COC2)c1", "note": "[Compound 2.005, (1R,3S,5S)-3-(5-cyano-3-pyridyl)-8-(oxetan-3-yl)-8-azabicyclo[3.2.1]oct-6-ene-3-carbonitrile]", "values": [{"measurement": "control of the Q-biotype (Neonicotinoid resistant) strain of Bemisia tabaci", "setting": "[1]", "result": "at least 80%"}, {"measurement": "resistance factor", "setting": "[1]", "result": "≤ 20"}]}, {"molecule": "C#CC(C)N1[C@@H]2C=C[C@H]1C[C@](C#N)(c1cncc(C#N)c1)C2", "note": "(stereo partly drawn) [Compound 2.099, (1S,3S,5R)-3-(5-cyano3-pyridyl)-8-(1-methylprop-2-ynyl)-8-azabicyclo[3.2.1]oct-6-ene-3-carbonitrile]", "values": [{"measurement": "control of the Q-biotype (Neonicotinoid resistant) strain of Bemisia tabaci", "setting": "[1]", "result": "at least 80%"}, {"measurement": "resistance factor", "setting": "[1]", "result": "≤ 20"}, {"measurement": "control of the FRC-P (Neonicotinoid resistant) strain of Myzus persicae", "setting": "[2]; 200 ppm", "result": "at least 80%"}, {"measurement": "resistance factor (RF80)", "setting": "[2]", "result": "≤ 20"}]}, {"molecule": "N#C/N=C1\\SCCN1Cc1ccc(Cl)nc1", "note": "[Thiacloprid, reference compound]", "values": [{"measurement": "resistance factor", "setting": "[1]", "result": "> 64"}, {"measurement": "resistance factor (RF80)", "setting": "[2]", "result": "> 64"}]}]}
